Results from paper PMC12189954.
Substitutions are numbered along the chain they refer to. Numbers in names are those of the source. These are yes or no findings as the source states them, for the method shown. In cells and extracts the contact can be indirect. Some entries that bind do so weakly or less than the wild type. For some of these results: Tags and fused reporters may be left off the sequences shown.

Chains of the proteins cited; added tags and fusions are not shown.
UniProt P42227: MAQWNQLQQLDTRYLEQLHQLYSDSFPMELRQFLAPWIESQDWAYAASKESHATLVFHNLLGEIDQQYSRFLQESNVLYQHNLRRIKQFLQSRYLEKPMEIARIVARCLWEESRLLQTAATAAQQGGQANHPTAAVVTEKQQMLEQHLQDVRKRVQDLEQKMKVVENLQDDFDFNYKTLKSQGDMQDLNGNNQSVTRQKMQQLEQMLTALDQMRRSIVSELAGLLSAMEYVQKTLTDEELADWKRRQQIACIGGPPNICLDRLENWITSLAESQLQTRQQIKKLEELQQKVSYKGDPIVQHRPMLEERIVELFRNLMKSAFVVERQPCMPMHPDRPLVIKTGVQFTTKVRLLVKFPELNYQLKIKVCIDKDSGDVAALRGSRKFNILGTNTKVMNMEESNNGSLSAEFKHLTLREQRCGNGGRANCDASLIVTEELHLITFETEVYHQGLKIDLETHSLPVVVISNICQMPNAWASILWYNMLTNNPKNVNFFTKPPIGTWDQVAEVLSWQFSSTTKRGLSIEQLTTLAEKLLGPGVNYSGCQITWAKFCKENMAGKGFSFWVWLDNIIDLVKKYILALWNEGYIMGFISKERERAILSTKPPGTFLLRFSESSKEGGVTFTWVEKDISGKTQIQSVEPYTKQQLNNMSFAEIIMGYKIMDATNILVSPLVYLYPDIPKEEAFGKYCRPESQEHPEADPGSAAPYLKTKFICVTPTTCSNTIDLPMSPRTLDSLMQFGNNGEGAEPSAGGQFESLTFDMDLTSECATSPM
UniProt P52631: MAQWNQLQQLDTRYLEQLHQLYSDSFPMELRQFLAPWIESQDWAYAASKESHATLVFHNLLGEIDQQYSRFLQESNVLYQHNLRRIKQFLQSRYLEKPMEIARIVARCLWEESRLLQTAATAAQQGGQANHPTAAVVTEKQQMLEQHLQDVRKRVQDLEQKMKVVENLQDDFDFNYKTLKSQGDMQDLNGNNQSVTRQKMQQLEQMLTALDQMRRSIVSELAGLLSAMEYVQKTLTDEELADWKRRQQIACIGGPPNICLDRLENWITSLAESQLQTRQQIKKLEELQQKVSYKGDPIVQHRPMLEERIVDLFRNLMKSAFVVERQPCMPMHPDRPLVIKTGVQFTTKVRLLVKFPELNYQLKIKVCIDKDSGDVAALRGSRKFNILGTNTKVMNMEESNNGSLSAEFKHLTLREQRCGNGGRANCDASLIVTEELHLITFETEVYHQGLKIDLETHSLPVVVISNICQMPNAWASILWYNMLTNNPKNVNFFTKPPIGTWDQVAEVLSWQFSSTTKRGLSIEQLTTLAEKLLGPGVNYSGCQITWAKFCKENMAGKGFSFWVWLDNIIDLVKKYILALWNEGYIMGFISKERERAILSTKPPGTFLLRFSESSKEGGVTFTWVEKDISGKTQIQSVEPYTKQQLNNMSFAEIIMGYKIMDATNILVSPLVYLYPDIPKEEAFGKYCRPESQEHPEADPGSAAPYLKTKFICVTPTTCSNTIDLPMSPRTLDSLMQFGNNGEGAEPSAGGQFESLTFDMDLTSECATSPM

T1: endogenous YOD1 (primary cardiomyocytes after Ang II stimulation) (rat (endogenous in neonatal rat primary cardiomyocytes, by the legend; the text says mouse cardiac tissue)) (UniProt Q32Q05)
T1 sequence: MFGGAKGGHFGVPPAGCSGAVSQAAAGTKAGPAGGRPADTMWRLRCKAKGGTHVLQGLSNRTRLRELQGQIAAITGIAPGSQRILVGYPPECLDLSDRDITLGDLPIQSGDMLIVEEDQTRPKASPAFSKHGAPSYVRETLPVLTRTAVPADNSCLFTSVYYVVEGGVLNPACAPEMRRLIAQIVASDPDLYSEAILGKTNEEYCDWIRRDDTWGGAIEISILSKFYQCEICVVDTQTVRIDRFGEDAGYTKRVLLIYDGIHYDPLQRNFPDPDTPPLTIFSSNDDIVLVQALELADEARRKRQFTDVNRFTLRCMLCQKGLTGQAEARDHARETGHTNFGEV

B1: Flag-YOD1, expressed in NIH 3T3 cells (enzyme, UniProt Q8CB27 1-343)
chain: MFGGAKGGHFGVPPAGYSGAVPQSEAGTKAGPAGGRPADTMWRVRCKAKGGTHLLQGLSSRTRLRELQGQIAAITGIAPGSQRILVGYPPECLDLSDRDITLGDLPIQSGDMLIVEEDQTRPKASPAFSKYGAPSYVREALPVLTRTAVPADNSCLFTSVYYVVEGGVLNPACAPEMRRLIAQIVASDPVLYSEAILGKTNEDYCDWIRRDDTWGGAIEISILSKFYQCEICVVDTQTVRIDRFGEDAGYTKRVLLIYDGIHYDPLQRNFPDPDTPPLTIFSSNDDIVLVQALELADEARRKRQFTDVNRFTLRCMICQKGLTGQAEARDHARETGHTNFGEV
B2: YOD1-C155A (enzyme, UniProt Q8CB27 1-343)
chain: B1 chain with C155A
B3: YOD1-H262A (enzyme, UniProt Q8CB27 1-343)
chain: B1 chain with H262A

Columns and labels:
[1] = target: T1, endogenous YOD1 (primary cardiomyocytes after Ang II stimulation) (rat (endogenous in neonatal rat primary cardiomyocytes, by the legend; the text says mouse cardiac tissue)); assay: co-IP; endogenous proteins, primary cardiomyocytes following Ang II stimulation (text: Ang II–induced mouse cardiac tissue); precipitated with anti-YOD1 antibody, IgG control; NP-40 lysis buffer, Protein A + G agarose, 4°C
[2] = target: His-STAT3, expressed in NIH 3T3 cells (UniProt P42227); assay: co-IP; NIH 3T3 cells cotransfected with Flag-YOD1 and His-STAT3 plasmids (wild type and domain deletion constructs); precipitated with anti-His or anti-Flag antibody; NP-40 lysis buffer, Protein A + G agarose, 4°C
[3] = target: His-STAT3, expressed in NIH 3T3 cells (UniProt P42227); assay: co-IP; fig. S12 (legend not shown): YOD1 active-site mutant plasmids with STAT3; method taken from the only binding assay of the methods

binding [3] | further results | Molecule
– | binding [1]: binds | endogenous STAT3 (primary cardiomyocytes after Ang II stimulation) (from UniProt P52631 1-770)
– | binding [2]: binds | B1
binds | – | B2
binds | – | B3
